Common to all, as to test: SPR; SPR imaging (SPRi, PlexArray HT); peptides immobilised through an N-terminal cysteine on a bare gold chip, blocked with 5% nonfat milk; HER2 or HSA in PBST flowed at 0.625 to 20 μg/mL; KD from fitting association-dissociation curves; both purified
In general terms: SPR reads the build-up and loss of mass on a sensor chip optically.

Chains of the proteins cited; added tags and fusions are not shown. Residues count along the entry.
UniProt P02768, residues 25-609: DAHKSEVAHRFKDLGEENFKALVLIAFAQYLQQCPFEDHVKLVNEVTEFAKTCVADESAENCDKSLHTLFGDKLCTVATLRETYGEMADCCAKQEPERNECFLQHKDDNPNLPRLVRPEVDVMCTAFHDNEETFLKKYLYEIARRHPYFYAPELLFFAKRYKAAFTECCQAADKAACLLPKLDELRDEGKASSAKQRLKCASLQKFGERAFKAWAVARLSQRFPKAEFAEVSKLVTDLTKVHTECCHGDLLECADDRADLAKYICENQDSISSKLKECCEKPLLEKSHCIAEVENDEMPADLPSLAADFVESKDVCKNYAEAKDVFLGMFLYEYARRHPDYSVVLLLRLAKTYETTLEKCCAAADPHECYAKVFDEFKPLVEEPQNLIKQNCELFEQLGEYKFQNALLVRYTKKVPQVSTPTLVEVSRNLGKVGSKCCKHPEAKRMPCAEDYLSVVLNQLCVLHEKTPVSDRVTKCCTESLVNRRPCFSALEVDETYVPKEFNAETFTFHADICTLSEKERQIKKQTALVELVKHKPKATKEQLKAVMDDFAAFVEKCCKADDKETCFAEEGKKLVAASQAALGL

The target in test [1] is T1, peptide 4665 (pertuzumab fragment Glu46 to Lys65) with N-terminal cysteine, for SPRi.
T1 sequence (peptide): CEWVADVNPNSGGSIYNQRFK

Test [2] concerns the target T2, peptide 58F63Y with N-terminal cysteine, for SPRi.
T2 sequence (peptide): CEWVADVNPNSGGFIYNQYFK

Test [3] has as its target T3, peptide 58F (4665 with Ser58 to Phe) with N-terminal cysteine, for SPRi.
T3 sequence (peptide): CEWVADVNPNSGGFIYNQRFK

Test [4] deals with T4, peptide 55V63Y with N-terminal cysteine, for SPRi.
T4 sequence (peptide): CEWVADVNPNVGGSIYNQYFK

Test [5] has as its target T5, peptide 55V (4665 with Ser55 to Val) with N-terminal cysteine, for SPRi.
T5 sequence (peptide): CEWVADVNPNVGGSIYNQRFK

Test [6] addresses T6, peptide 63Y (4665 with Arg63 to Tyr) with N-terminal cysteine, for SPRi.
T6 sequence (peptide): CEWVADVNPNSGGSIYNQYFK

No constants are given. Whether binding was seen depends on the method and setting.

As for “Human serum albumin (HSA) protein (from UniProt P02768 25-609)”, the binding entry in test [1], in test [2], in test [3], in test [4], in test [5] and in test [6] was “no binding (tested: 0.625 to 20 μg/mL HSA)” throughout.

The values above are taken from article PMC5390981, “Peptide probes derived from pertuzumab by molecular dynamics modeling for HER2 positive tumor imaging” (PLoS Computational Biology, 2017).
